Out of some 400,000 compounds screened, about 5,500 (1.4%) were called active. Inconclusive means that the source gave no clear call. Such entries were picked first, then a sample of the others. Calls follow the shape of the dose curve; as a rule, active = well fitted cell-killing curve with a large enough effect; inconclusive = small, poorly fitted or top-dose-only effect, or effect the other way; inactive = flat fitted curve, though single readings scatter. Potencies beside an inconclusive call are fits to weak or partial responses and may not hold up.
experiment: qHTS assay for MDR1-selective chemotherapeutics: Primary screen using the parental adenocarcinoma cell KB-3-1; conditions: KB-3-1 viability, CellTiter-Glo ATP luminescence, 72 h; activity change, negative = cytotoxic: at 46.1 µM (top of the series); also: nearly all actives have a fitted effect of over 60% in size
Method in brief: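 Cytotoxicity measured as CellTiter-Glo luminescence after 72 h at 37 C. Compound titrations were pinned onto drug-naive KB-3-1 parental adenocarcinoma cells grown in DMEM with 10% FBS, and normalized data fitted to concentration-response curves.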
% is scaled to controls: 0 for no effect and ±100 for the full control effect; potency is read from the fitted curve at half-maximal effect.

Compound	Potency	activity change, negative = cytotoxic
CN(C)C(=S)Nc1nc2ccccc2s1	inconclusive: 16.4 µM [cytotoxic, partial curve]	
COc1cccc(Sc2nc(-c3ccccc3)ncc2S(C)(=O)=O)c1	inactive	
CC(C)Oc1ccc(CN2CCC2(C)C(=O)Nc2ccc3c(c2)OCO3)cc1 (configuration not stated)	inconclusive: 11.6 µM [cytotoxic, partial curve]	
C=CCNc1nc2c(c(=O)n(C)c(=O)n2C)n1CCCCCC	active: 1.46 µM	
O=C(NCc1cccnc1)c1c[nH]c2cc3c(cc2c1=O)OCCO3	inconclusive: 5.17 µM [cytotoxic, partial curve, poor fit]	
O=C(CSc1nc2ccccc2c(=O)[nH]1)Nc1ccc(C(=O)O)cc1	inactive	
Cc1cc(C)c2c(=O)n(CC(=O)Nc3cccc(Cl)c3C)sc2n1	inconclusive: 29.1 µM [cytotoxic, single point]	
Cc1cc(C)c2sc(N(CCCN(C)C)C(=O)c3ccc(S(=O)(=O)N4CCCc5ccccc54)cc3)nc2c1	inconclusive: 18.4 µM [cytotoxic, single point]	
COC(=O)c1scc(-c2ccccc2)c1S(=O)(=O)Nc1ccc(C)c(Cl)c1	inconclusive: 25.9 µM [cytotoxic, single point]	
CCN1C(=O)[C@@H]2Cc3c([nH]c4ccccc34)C(c3ccc(OC)cc3)N2C1=S (some centres not stated)	inconclusive: 10.3 µM [cytotoxic, partial curve]	
CC(C)(C)c1ccc(C(=O)NNC(=S)NC(=O)c2cccnc2)cc1	inconclusive: 16.4 µM [cytotoxic, single point]	
O=C(Cc1ccc(Cl)cc1)N/N=C/c1ccc(O)c(O)c1	inconclusive: 29.1 µM [cytotoxic, single point]	
Fc1ccc(CCNc2ncnc3[nH]ncc23)cc1	active: 11.6 µM	
CC(C)Cn1c(C(C)C)nc([N+](=O)[O-])c1S(=O)(=O)c1ccc(F)cc1	inconclusive: 29.1 µM [cytotoxic, single point]	
O=C(c1cccc(S(=O)(=O)N2CCc3ccccc3C2)c1)N1CCN(c2ccc(O)cc2)CC1	inconclusive: 32.6 µM [cytotoxic, single point]	
COc1ccc(C2=NN(C(=O)COC(=O)c3ccc(S(C)(=O)=O)c([N+](=O)[O-])c3)C(c3ccco3)C2)cc1 (configuration not stated)	inconclusive: 29.1 µM [cytotoxic, single point]	
O=[N+]([O-])c1ccc(S(=O)(=O)CC2CSc3nc4ccccc4n32)cc1 (configuration not stated)	active: 1.84 µM	
O=CNc1ccc(/C=C/c2ccnc3ccccc23)cc1	inactive	
CC(C)c1c(O)nc(SCCN(C)C)[nH]c1=O	inactive	
COC(=O)[C@@]12CCCCN1[C@H](c1ccc(-c3ccc(F)cc3)c(OC)c1)[C@H]1C(=O)N(C)C(=O)[C@H]12	inconclusive: 29.1 µM [cytotoxic, single point]	
Nc1c(S(=O)(=O)c2cc(Cl)ccc2Cl)c2nc3ccccc3nc2n1CCN1CCOCC1	inconclusive: 32.6 µM [cytotoxic, single point]	

Compound	Potency	activity change, negative = cytotoxic
CC(=O)N1N=C(c2ccco2)CC1c1cc2ccc(C)cc2nc1Cl (configuration not stated)	inconclusive: 16.4 µM [cytotoxic, single point]	
O=C(CN1CCN(CC(=O)Nc2ccccc2Cc2ccccc2)CC1)Nc1ccccc1Cl	inconclusive: 20.6 µM [cytotoxic, single point]	
Cc1ccc(C(=O)N2CCN(c3ncccn3)CC2)cc1NC1=NC2CS(=O)(=O)CC2S1 (configuration not stated)	inconclusive: 29.1 µM [cytotoxic, single point]	
O=C(NCC1CCCCN1)c1cc(OCC(F)(F)F)ccc1OCC(F)(F)F (configuration not stated)		inconclusive: -1.52%
COc1cccc(OCc2cc(C3Nc4ccccc4C(=O)N3c3ccccc3)ccc2OC)c1 (configuration not stated)	inconclusive: 32.6 µM [cytotoxic, partial curve, poor fit]	
O=C1Nc2cc(C(=O)N3CCN(c4ccccn4)CC3)ccc2S/C1=C\c1ccccc1	inconclusive: 20.6 µM [rising, single point]	
Cc1ccc(S(=O)(=O)NCCNC(=O)CN2CCOCC2)cc1	inconclusive: 0.13 µM [rising, full curve, poor fit]	
Cn1c(=O)c2cc(C(=O)Nc3cccc(C#N)c3)sc2c2ccccc21	inconclusive: 5.17 µM [rising, partial curve]	
COc1ccc(NC(=O)CN(C)CC(=O)N2CCCCCC2)cc1	inactive	
N#CC1=C(N)Oc2c(ccc3ccccc23)C1c1cccs1 (configuration not stated)	active: 0.891 µM	
O=C(Nc1ccc(F)c(Cl)c1)Nc1csc2ccccc12	inconclusive: 20.6 µM [cytotoxic, single point]	
CCc1cccc(CC)c1NC(=O)CSc1nc2ccc(N3C(=O)C4C(C3=O)[C@H]3C=C[C@@H]4C3)cc2s1 (some centres not stated)	inactive	
CC(C)Cc1nnc(NC(=O)Cc2ccc([N+](=O)[O-])cc2)s1	inconclusive: 29.1 µM [rising, single point]	
COc1ccc(CCNC(=O)CSCc2nc(-c3cccc(C)c3)oc2C)cc1OC	inconclusive: 16.4 µM [cytotoxic, single point]	
O=C(NCc1ccccc1)c1ccc2c(c1)N(Cc1ccc(F)cc1)CCS2	inconclusive: 13 µM [cytotoxic, partial curve, poor fit]	
CN(C)CCNC(=O)c1ccc(COc2ccc(Cl)cc2Cl)cc1	inconclusive: 29.1 µM [cytotoxic, single point]	
CCOC(=O)c1c(C)n(CCO)c2ccc(O)cc12	inactive	
CCOCCCn1cnc2c([nH]c3cc(OC)ccc32)c1=O	inconclusive: 29.1 µM [rising, single point]	
COC(=O)c1sc2cccc(F)c2c1S(=O)(=O)Nc1cc(C)c(Cl)cc1OC	inconclusive: 16.4 µM [cytotoxic, single point]	
CCCn1c(CN2CCN(C(=O)OCC)CC2)nc2cc(NC(C)=O)ccc21	inconclusive: 29.1 µM [cytotoxic, single point]	
CCc1cccc(C)c1NC(=O)CN1C(=O)c2ccccc2Sc2ncccc21	inactive	

Single values from the list:
Value for COc1ccc(CCNC(=O)CSCc2nc(-c3cccc(C)c3)oc2C)cc1OC under Potency: inconclusive: 16.4 µM [cytotoxic, single point]
Value for O=C1Nc2cc(C(=O)N3CCN(c4ccccn4)CC3)ccc2S/C1=C\c1ccccc1 under Potency: inconclusive: 20.6 µM [rising, single point]
Value for Cn1c(=O)c2cc(C(=O)Nc3cccc(C#N)c3)sc2c2ccccc21 under Potency: inconclusive: 5.17 µM [rising, partial curve]

From PubChem BioAssay AID1347075 (National Center for Advancing Translational Sciences (NCATS), 2019)
